The list shows a part of the results. Further columns of the screen follow, without active or inactive calls. Most of these compounds were active or inconclusive in the main read-out, so they are no random draw. The note in brackets gives the kind of curve behind each potency; many fits are weak.

The record followed here is PubChem BioAssay AID662 (National Center for Advancing Translational Sciences (NCATS), 2007).

This test is described as follows: Cell signaling CRE-BLA (Fsk stim). The note with it: CHO CRE-bla reporter (cAMP response element driving beta-lactamase), forskolin EC10, beta-lactamase ratio; measured here: 460 nm blue channel. A digest of the protocol: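 Modulation of forskolin-driven signalling is measured in CHO cells carrying a CRE-controlled beta-lactamase reporter. Cells are stimulated with EC10 NKH 477 in the presence of titrated compound for 3 h at 37 °C, then loaded with CCF4 for 2 h at room temperature.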
`Cc1cc(C)nc(N2CCCC(C(=O)Nc3ccc4nc(C)c(C)nc4c3)C2)n1` (configuration not stated): the AC50 (commonly the concentration at which the activity in the assay is half-maximal) was 7.94 µM [rising, partial curve].
For `COc1ccc(-c2noc(CSc3ccccc3)n2)cc1OC` the value was 10 µM [rising, partial curve]; for `CCC(Sc1nccn1C)C(=O)Nc1cccc2ccccc12` (configuration not stated), 0.00316 µM [falling, full curve, poor fit].
For `Cc1nc2cnc(N3CCN(C)CC3)nc2n(Cc2ccc(F)cc2)c1=O` the value was 6.31 µM [rising, partial curve]; for `CCCSc1nc2c(cnn2-c2ccc(F)cc2)c(=O)[nH]1`, 1.58 µM [rising, full curve].
In the case of `Cc1nn(-c2ccccc2)c2[nH]c(=O)c(CNc3ccc(N4CCOCC4)cc3)cc12`, the AC50 was 12.6 µM [rising, partial curve].
As for `Cc1cc(C)c2c(n1)nn1c(NCCCN(C)C)cc(C)nc21`, the AC50 was 12.6 µM [rising, single point].
Consider `CC1(C)CC(=O)C(=CN2CCN(C(=O)c3ccco3)CC2)C(=O)C1`, for which the AC50 is 25.1 µM [rising, single point].
As to `CCOC(=O)c1c(C2CCN(C(=O)OCC)CC2)nc2ccccn12`, the AC50 was 3.98 µM [rising, partial curve].
For `CC(C)C[C@@H](CC(=O)N[C@@H](CCCN)CC(=O)N[C@@H]1CCNC[C@H]1C(=O)N[C@H](CC(=O)N[C@@H](CCC(=O)O)CC(=O)O)Cc1c[nH]c2ccccc12)NC(=O)[C@@H]1CNCC[C@H]1N` the value was 7.94 µM [falling, full curve, poor fit]; for `O=C1CC(NC23CC4CC(CC(C4)C2)C3)C(=O)N1c1ccc2c(c1)OCO2` (configuration not stated), 0.00316 µM [falling, full curve, poor fit]; for `COc1ccc(CNn2c(C)nc3ccccc3c2=O)cc1`, 5.01 µM [falling, partial curve, poor fit].
On to `O=C(Cn1cc(C(=O)c2cccs2)c2ccccc21)NCc1ccc2c(c1)OCO2`, for which the AC50 is 25.1 µM [falling, single point].
As for `CCOC(=O)C1CCCN(C(=O)CC(C)c2ccccc2)C1` (configuration not stated), the AC50 is 1 µM [falling, partial curve].
Regarding `CCCCCCCC/C=C\CCCCCCCC(=O)N(CCO)CCO`, the AC50 was 10 µM [rising, full curve].
`c1cncc(CNc2cc(-c3ccc4c(c3)OCO4)ncn2)c1`: the AC50 was 10 µM [rising, partial curve].
As for `Cc1csc(C(C#N)C(=O)c2ccc(S(=O)(=O)N3CCCC3)cc2)n1` (configuration not stated), the figure is 2.51 µM [rising, single point].
Take `CN(C)c1ncc2nc(-c3cc(F)cc(F)c3)c(=O)n(CCC#N)c2n1`: the AC50 is 10 µM [rising, partial curve].
For `Cc1cc(C)c2ccc(C)[n+]([O-])c2c1O` the value was 12.6 µM [rising, single point].
As for `Cc1ccc(C(=O)Nc2ccc3c(c2)OCO3)cc1S(=O)(=O)N1CCCC1`, the figure is 0.00316 µM [falling, partial curve, poor fit]; as for `CC1CCCC(C(=O)OCc2ccccc2)N1` (configuration not stated), 7.94 µM [falling, partial curve]; as for `Cc1ccc(C2C3=C(CC(C)(C)CC3=O)Nc3[nH]c(=S)[nH]c(=O)c32)cc1` (configuration not stated), 5.01 µM [rising, single point].
As for `Cc1onc(-c2ccccc2Cl)c1C(=O)OCC(=O)c1ccc2c(c1)OCCO2`, the figure is 20 µM [falling, single point]; as for `COc1ccccc1NC(=O)N(Cc1ccc2c(c1)OCO2)Cc1nc2ccccc2c(=O)[nH]1`, 2.51 µM [rising, partial curve].
Regarding `Cc1cc(NC(=O)CSc2nnc3c4c(C)c(C)sc4ncn23)no1`, the AC50 was 10 µM [rising, partial curve].
With `CCOc1ccc(C(=O)C2CCN(CC(=O)Nc3ccccc3N3CCOCC3)CC2)cc1`, the concentration at half-maximal activity (AC50) was 2 µM [rising, single point].
For `CCNc1nc(NCC)n2c(SCc3nc4ccccc4c(=O)[nH]3)nnc2n1` the value was 0.2 µM [rising, full curve]; for `CCNc1nc(Oc2ccc(C(=O)OCC)cc2)nc(SC)n1`, 10 µM [rising, partial curve].
With `CSc1nnc(-c2ccco2)c(-c2ccco2)n1`, the AC50 is 3.98 µM [falling, full curve].
Turning to `COc1cc2c(cc1OC)-c1nncn1C(C)(C)C2`, the AC50 was 12.6 µM [rising, single point].
For `COc1cccc(Nc2ncc3ncc(=O)n(Cc4ccc(F)cc4)c3n2)c1` the value was 12.6 µM [falling, single point].
As for `COc1ccc(C(=O)Nc2nncs2)cc1S(=O)(=O)N1CC(c2ccccc2)CC1=O` (configuration not stated), the figure is 5.01 µM [falling, partial curve]; as for `Cn1cc(-c2nc3cnc(Oc4ccccc4)nc3n(C3CC3)c2=O)c2ccccc21`, 5.01 µM [rising, partial curve]; as for `CC(C)(NCc1ccccc1Cl)C(=O)O`, 0.0126 µM [falling, full curve, poor fit].
On to `O=C(CCCn1c(=O)[nH]c2ccsc2c1=O)N1CCN(Cc2ccc3c(c2)OCO3)CC1`, for which the AC50 is 25.1 µM [rising, single point].
For `COc1cccc(C2C(C(=O)OC(C)C)=C(C)Nc3ncnn32)c1` (configuration not stated) the value was 6.31 µM [rising, partial curve].
For `C[C@@H](CCc1ccc(O)cc1)NCCc1ccc(O)c(O)c1` the value was 25.1 µM [falling, single point]; for `CC(=O)SCC(=O)N=c1sc2cc(F)ccc2n1C`, 0.02 µM [falling, full curve].
For `COc1ccccc1-n1nnnc1S(=O)(=O)Cc1ccc(Cl)cc1` the value was 1.26 µM [falling, full curve]; for `Cc1[nH]n2c(=O)c3c(nc2c1-c1ccccc1)CCCC3`, 25.1 µM [rising, single point]; for `Nc1nc(CSc2nnnn2-c2ccc(F)c(Cl)c2)nc(N2CCOCC2)n1`, 12.6 µM [rising, partial curve].
In the case of `CCCCN(C)C(=O)c1coc(=O)c2ccccc12`, the AC50 is 0.0631 µM [falling, full curve].
